Measured values: paper doi:10.1101/2021.03.31.437839
Where two headings read alike, the source gives them in different places. Results are given in words; binding and its absence hold for the method and conditions named. In cells and extracts the contact can be indirect. For part of these data: A result given as binding can be weak or reduced; the word gives no strength.

Amino acid sequences for entries named in this document (tags omitted). A change or cut given only in a name is not applied to a line headed by its entry.
UniProt P78504: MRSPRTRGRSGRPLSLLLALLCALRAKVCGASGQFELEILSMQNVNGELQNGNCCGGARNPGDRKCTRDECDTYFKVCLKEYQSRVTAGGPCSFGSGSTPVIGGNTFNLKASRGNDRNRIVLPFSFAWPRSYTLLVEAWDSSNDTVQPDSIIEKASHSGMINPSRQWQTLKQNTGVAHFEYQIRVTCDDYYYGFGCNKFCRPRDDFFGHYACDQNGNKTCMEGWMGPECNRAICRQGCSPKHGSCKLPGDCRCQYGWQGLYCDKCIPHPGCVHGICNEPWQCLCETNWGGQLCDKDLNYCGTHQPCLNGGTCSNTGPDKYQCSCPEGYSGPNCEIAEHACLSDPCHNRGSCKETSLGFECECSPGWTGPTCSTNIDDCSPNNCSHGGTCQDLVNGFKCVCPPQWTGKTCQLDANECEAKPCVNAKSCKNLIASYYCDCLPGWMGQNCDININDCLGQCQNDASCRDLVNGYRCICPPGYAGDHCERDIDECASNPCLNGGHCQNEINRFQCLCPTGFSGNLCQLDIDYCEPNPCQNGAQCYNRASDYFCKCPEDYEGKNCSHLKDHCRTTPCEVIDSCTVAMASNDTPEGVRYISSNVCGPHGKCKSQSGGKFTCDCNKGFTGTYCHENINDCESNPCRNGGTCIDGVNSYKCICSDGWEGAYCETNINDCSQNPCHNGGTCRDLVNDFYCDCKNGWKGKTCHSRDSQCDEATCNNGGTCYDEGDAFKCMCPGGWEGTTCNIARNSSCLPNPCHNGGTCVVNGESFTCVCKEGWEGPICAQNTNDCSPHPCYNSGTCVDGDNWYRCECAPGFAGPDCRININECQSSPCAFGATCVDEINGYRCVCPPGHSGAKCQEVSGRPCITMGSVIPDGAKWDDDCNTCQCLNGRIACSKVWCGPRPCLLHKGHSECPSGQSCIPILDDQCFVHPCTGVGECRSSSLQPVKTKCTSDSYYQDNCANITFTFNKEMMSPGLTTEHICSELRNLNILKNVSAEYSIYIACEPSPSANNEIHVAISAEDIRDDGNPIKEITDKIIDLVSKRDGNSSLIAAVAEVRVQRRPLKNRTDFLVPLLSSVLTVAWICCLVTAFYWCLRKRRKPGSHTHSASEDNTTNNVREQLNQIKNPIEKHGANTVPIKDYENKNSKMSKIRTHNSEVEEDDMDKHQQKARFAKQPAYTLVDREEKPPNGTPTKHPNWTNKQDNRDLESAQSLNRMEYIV
UniProt P84022: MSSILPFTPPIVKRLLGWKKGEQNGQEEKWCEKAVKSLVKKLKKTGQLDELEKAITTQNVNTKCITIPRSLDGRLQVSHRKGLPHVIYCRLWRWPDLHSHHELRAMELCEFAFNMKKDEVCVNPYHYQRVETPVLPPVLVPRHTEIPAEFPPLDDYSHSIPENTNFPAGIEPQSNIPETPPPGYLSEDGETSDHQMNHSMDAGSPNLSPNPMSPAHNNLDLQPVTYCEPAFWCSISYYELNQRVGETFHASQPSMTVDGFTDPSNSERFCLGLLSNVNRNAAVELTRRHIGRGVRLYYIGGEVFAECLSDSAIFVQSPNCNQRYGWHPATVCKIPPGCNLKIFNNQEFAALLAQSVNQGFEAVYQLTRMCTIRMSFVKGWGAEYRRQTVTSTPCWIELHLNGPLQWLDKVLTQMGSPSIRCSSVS
UniProt Q15583: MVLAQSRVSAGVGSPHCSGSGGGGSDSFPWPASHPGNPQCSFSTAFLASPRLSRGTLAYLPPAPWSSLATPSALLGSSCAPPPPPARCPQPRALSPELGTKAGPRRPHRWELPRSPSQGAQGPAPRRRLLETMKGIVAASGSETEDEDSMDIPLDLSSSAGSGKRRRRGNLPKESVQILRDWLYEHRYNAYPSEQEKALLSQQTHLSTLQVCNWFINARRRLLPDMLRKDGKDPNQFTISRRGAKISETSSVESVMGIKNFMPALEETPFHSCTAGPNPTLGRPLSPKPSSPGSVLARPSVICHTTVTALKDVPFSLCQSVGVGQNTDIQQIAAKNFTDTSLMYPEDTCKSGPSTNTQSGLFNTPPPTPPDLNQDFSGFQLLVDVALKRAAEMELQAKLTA
UniProt Q9GZN2: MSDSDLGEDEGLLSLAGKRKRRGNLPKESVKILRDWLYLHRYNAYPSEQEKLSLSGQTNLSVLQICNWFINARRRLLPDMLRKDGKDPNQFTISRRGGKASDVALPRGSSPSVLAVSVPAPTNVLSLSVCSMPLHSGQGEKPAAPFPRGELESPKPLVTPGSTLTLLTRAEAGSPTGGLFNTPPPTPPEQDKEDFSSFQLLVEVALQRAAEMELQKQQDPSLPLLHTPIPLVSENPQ

Columns and labels:
Experiment in all cases: co-IP
[1] = biological target: HA-JICD1 (JAG1 intracellular domain) (human) (UniProt P78504)
[2] = biological target: HA-JICD1 (JAG1 intracellular domain) (human) (UniProt P78504); remark: listed apart in the source
[3] = biological target: FLAG-SMAD3 mutant consisting of only the linker domain (human) (UniProt P84022)

Row | Substance | binding [1] | binding [2] | binding [3]
1 | FLAG-TGIF1 (TGFB-induced factor homeobox 1) (from UniProt Q15583 1-401) | no binding | no binding | –
2 | HA-TGIF2 (from UniProt Q9GZN2 1-237) | – | – | binds
